From PMC2824753
Where two headings read alike, the source gives them in different places. Results are given in words; binding and its absence hold for the method and conditions named. For part of these data: In cells and extracts the contact can be indirect. Some entries that bind do so weakly or less than the wild type. Where a sequence is shown, tags or fusion partners need not be part of it.

Protein sequences, listed by entry. Tags and fused reporters are not part of them.
UniProt P27705: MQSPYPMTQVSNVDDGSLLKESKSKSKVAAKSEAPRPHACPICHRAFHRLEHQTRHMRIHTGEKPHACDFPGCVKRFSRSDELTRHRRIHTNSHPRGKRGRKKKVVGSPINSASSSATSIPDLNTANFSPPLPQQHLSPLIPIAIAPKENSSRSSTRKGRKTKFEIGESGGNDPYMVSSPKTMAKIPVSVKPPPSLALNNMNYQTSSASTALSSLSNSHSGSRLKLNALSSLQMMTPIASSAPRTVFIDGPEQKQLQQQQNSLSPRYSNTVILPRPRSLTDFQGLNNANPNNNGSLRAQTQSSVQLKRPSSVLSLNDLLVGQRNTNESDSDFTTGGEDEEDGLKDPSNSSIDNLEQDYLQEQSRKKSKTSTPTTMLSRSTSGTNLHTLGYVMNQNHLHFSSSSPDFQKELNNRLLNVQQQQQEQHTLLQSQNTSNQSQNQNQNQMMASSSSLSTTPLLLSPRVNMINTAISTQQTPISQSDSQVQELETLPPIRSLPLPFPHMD

Columns and labels:
[1] = target: T1, Gal4p-Mms22p-DNA binding domain fusion protein (S. cerevisiae) (UniProt Q06164); test: two-hybrid; Gal4 DNA-binding domain-Mms22 bait (pOBD2) against genome-wide array of pOAD fusions; each screen in duplicate, positives identified twice retested in a mini-array
T1 sequence: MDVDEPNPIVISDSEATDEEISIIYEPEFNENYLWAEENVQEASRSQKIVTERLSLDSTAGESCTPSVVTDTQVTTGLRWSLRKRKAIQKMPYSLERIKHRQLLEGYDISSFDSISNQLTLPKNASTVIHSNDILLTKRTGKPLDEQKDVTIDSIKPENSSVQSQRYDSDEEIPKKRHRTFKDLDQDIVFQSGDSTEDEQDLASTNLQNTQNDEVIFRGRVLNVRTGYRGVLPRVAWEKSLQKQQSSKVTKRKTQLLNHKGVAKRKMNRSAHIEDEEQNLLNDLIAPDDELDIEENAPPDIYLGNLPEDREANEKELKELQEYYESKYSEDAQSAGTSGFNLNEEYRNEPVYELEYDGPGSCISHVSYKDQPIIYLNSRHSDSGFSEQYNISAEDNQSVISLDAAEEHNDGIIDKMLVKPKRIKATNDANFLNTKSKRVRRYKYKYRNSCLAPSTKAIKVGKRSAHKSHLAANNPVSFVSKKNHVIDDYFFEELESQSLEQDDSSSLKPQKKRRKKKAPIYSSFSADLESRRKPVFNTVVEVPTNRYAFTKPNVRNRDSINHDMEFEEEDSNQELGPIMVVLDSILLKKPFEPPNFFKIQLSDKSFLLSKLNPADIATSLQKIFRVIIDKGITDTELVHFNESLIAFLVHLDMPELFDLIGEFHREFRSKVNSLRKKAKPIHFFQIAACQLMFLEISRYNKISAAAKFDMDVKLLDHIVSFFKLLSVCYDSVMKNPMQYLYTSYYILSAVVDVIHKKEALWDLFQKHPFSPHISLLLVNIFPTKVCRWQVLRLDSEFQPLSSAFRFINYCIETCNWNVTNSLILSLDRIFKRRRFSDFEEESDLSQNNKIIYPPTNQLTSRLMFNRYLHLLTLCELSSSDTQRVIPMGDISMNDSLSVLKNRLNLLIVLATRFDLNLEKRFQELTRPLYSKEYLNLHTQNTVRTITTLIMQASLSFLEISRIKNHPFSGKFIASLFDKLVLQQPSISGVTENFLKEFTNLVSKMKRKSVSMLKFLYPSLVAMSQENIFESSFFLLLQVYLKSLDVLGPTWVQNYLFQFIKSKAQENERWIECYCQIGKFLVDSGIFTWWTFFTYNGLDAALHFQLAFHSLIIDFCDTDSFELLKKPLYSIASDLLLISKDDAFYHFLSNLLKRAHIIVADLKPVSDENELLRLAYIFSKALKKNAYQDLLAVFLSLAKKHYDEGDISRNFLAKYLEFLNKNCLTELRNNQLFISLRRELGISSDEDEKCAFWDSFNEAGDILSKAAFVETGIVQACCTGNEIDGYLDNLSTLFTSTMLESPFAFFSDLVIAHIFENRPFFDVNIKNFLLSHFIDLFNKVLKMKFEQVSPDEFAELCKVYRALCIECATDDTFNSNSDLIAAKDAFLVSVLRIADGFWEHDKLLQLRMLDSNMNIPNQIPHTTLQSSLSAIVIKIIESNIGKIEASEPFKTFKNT

[2] = target: T1, Gal4p-Mms22p-DNA binding domain fusion protein (S. cerevisiae); test: as above; remark: listed apart in the source
[3] = target: T2, Mms22-13Myc (S. cerevisiae) (UniProt Q06164); test: co-IP; whole cell extracts of the doubly tagged Mms22-13Myc/Rtt101-3HA haploid strain; IP with anti-Myc antibody, immunoblotting with anti-Myc and anti-HA; singly tagged Mms22-13Myc strain as control
T2 sequence: T1 sequence

MIG1 (pOAD fusion protein) (from UniProt P27705 1-504)
binding [1]: no binding

B1: Rtt101/Cul8 (pOAD fusion protein) (protein, UniProt P47050 1-842)
chain: MINESVSKREGFHESISRETSASNALGLYNKFNDERNPRYRTMIAELHEFFHLTLAETITETDVKELECNKEKAAKFRKLMPKMLNNCRELTQRKSYIPYNSEFNGNDEKQKKFQLLHQHQIVLSFQEFCDELAKLIIDAHVLSFLTRCDYSYEIIPKNWTSFYKLFQYVMGAVGPIISYVPVNYPMIRKELGFETLTIFQYYDSKLFECMKSHFGREFSTLVSATIHHYIHMFPITNTMLEKEVPMLRIMSNCNFSIEGLSPKDFYMKTLRQYYCEESNLRPRLETFKNFKVLLTRNALLASLFSPEWVSDANDLFISHLLLNKKSISEYIEIGKDTYDEEKERYFKTETHFSLLMFRNAFEAKNMLSKFKEFCDDAVSEKLKAAYGSNHDTERLFDEVVQLANVDHLKIYSDSIEYHLCNLLGSTSKAIEQYVKYFESHLFIIVRKIKTTKKDLPRDMKIKYLNENLPILRLKFVNLPTFPNFFERSIFRKTILQSDQNSSFIKDILPVYKDSLMELFKQRIITNVSQEDEMRYRDQYQPYLSQFFQPVEVMADLRIKYASFLSFYENIEAAVKFGKTYNENNSKSFFPLIFDRERIPKVFQQSNEVKKNFVLPQEMDDTWNQFLRNYHEQNKVEDSDASKKELYPMWNLHHCEVESPYIIQDGTNLIFELTLFQTCVLTLFNESDHLTLQVISEQTKLAYKDLALVLKSFCNYKILTRDIDNTYSINESFKPDMKKVKNGKLRVVLPRTASLQSSNTGGERTSSAHHEGSNSQWTQELLKACITRSVKSERNGLDYDHLFETVKQQIKGFSVGEFKDALAKLLRDKFITRDESTATYKY
binding [2]: binds

B2: Rtt101-3HA (protein, UniProt P47050 1-842)
chain: B1 chain
binding [3]: binds
